Experimental data from patent US20250129094A1, “NEW QUINOLINE DERIVATIVES” (ELANCO ANIMAL HEALTH GMBH, priority 2021, published 2025).
Some results were stated once for a whole list of compounds, not compound by compound.

Test system: L. sigmodontis
Details: mice, at ≤3.0 mg/kg per oral or intraperitoneal, treated once, necropsy 5 weeks after infection

SMILES	activity (efficacy, Abbot's formula)
O=C(N[C@H]1CCOc2ccccc21)c1cnc2c(-c3cc(F)cc(F)c3F)c(F)ccc2c1[C@H]1C[C@H](F)C1 [Example 15, N—((S)-chroman-4-yl)-7-fluoro-4-((1R,3S)-3-fluorocyclobutyl)-8-(2,3,5-trifluorophenyl) quinoline-3-carboxamide]	≥ 80%
O=C(N[C@H]1CCOc2ccccc21)c1cnc2c(-c3cc(F)cc(F)c3F)c(F)ccc2c1C1C[S+]([O-])C1 (stereo partly drawn) [Example 4, N-[(4S)-3,4-dihydro-2H-chromen-4-yl]-7-fluoro-4-(1-oxidothietan-3-yl)-8-(2,3,5-trifluorophenyl) quinoline-3-carboxamide]	≥ 80%
